Reference: publication PMC3619129
Results are given in words; binding and its absence hold for the method and conditions named. Binding seen in cells or lysates may run through a third protein. Some binding calls cover weakened binding; strength is not graded here.

Molecular target: T1, P-selectin glycoprotein ligand-1 (human (endogenous in T cells)) (UniProt Q14242)
T1 sequence: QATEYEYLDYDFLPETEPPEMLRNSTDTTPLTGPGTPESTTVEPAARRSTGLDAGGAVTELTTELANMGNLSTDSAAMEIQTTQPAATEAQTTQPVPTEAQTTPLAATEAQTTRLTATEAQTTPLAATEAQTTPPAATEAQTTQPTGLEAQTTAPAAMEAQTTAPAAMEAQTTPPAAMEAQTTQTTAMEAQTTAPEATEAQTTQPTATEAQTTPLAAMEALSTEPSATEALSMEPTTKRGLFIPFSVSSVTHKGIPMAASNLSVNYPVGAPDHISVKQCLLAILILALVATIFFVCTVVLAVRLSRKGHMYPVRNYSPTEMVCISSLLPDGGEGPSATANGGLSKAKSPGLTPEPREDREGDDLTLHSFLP
Assay: proximity ligation; in situ PLA in freshly isolated human T cells, without chemokine or stimulated 15 min with SDF-1; polyclonal rabbit anti-flotillin-2 and murine monoclonal anti-PSGL-1; control with the anti-flotillin-2 antibody only; unpublished observations (Baumann et al.)

binding: binds
B1: flotillin-2 (protein, UniProt Q14254 1-428)
chain: MGNCHTVGPNEALVVSGGCCGSDYKQYVFGGWAWAWWCISDTQRISLEIMTLQPRCEDVETAEGVALTVTGVAQVKIMTEKELLAVACEQFLGKNVQDIKNVVLQTLEGHLRSILGTLTVEQIYQDRDQFAKLVREVAAPDVGRMGIEILSFTIKDVYDKVDYLSSLGKTQTAVVQRDADIGVAEAERDAGIREAECKKEMLDVKFMADTKIADSKRAFELQKSAFSEEVNIKTAEAQLAYELQGAREQQKIRQEEIEIEVVQRKKQIAVEAQEILRTDKELIATVRRPAEAEAHRIQQIAEGEKVKQVLLAQAEAEKIRKIGEAEAAVIEAMGKAEAERMKLKAEAYQKYGDAAKMALVLEALPQIAAKIAAPLTKVDEIVVLSGDNSKVTSEVNRLLAELPASVHALTGVDLSKIPLIKKATGVQV
